Test results published in patent US8053435B2, “Naphthalenyloxypropenyl derivatives having inhibitory activity against histone deacetylase and pharmaceutical composition comprising the same” (Korea Research Institute of Chemical Technology, priority 2006, dated 2011).

Tested on: colon cancer cells HCT116
Experiment: Inhibitory activity against proliferation of cancer cells, SRB (Sulforhodamine B) analysis
Type: cell-based
Conditions: Homo sapiens, HCT-116, Table 2, 48 hrs incubation with compound, read-out: Inhibitory conc. against cancer cell growth (EC50 μM) HCT116
Description: Inhibitory activities of naphthalenyloxypropenyl derivatives synthesized in Examples 1-1 to 1-23 against proliferation of cancer cells were examined by SRB (Sulforhodamine B) analysis using cervix adenocarcinoma Hela (Korean Cell Line Bank, KCLB 10002) and colon cancer cells HCT116 (Korean Cell Line Bank, KCLB 10247) as follows: […]
Inhibitory activities of naphthalenyloxypropenyl derivatives synthesized in Examples 2-1 to 2-30 against proliferation of cancer cells were examined by SRB (Sulforhodamine B) analysis using cervix adenocarcinoma Hela (Korean Cell. Line Bank, KCLB 10002) and colon cancer cells HCT116 (Korean Cell Line Bank, KCLB 10247) as follows:
Cancer cells were inoculated into a 96-well microplate at a concentration of 1×10^3˜3×10^3 cells/well and incubated under the condition of 37° C., 5% CO2 for 24 hrs. After the incubation was completed, 0.2, 1, 5, 25, or 100 μM of each of the compounds of Examples was added to the plate, and then the reactant was incubated for 48 hrs. After the substrate was stained with SRB, the anti-cancer activity was determined by comparing the amount of protein in the cells treated with the compound of Examples with that of protein in untreated cells.
Specifically, after the incubation was completed, the culture medium was removed from each well, and the cells were washed 3 times with PBS (pH 7.4). […]

`O=C(CCCCCCC(=O)Nc1ccccc1)NO` [SAHA, suberoylanilide hydroxamic acid, reference compound] gave an EC50 of 1.6 µM.
